Data source: PubChem BioAssay AID1224830 (NIAID, 2016)

Purpose: 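Host factors that control LPS-induced TNF expression in human macrophages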 (primary screen)
Cell system: human THP-1 monocytic leukaemia cells, TNF dual-luciferase reporter clone, PMA-differentiated to macrophage-like cells
Reagents: siRNA pool against human genes, 50 nM
Time to read-out: LPS for 4 h, given about 3 days after siRNA transfection
Challenge: bacterial LPS (TLR4 ligand), 10 ng/ml
Detection: 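Ratio of firefly to renilla light, scaled to the plate median and expressed as a robust z-score per replicate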
Reading the numbers: TNF reporter robust z-score: higher = stronger TNF reporter response to LPS
Rule for the call: 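a well is active when its z-score exceeds 2.8 or falls below -1.5; control wells carry no call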
The deposit covers about 18,000 reagents; this is an unselected part. Over the whole deposit, about 2,900 (16%) are marked active. 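Calls are made per well; low scores hint the gene aids the LPS response, high scores that it dampens it.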 Repeated entries: four replicate wells of each siRNA pool.

gene,TNF reporter robust z-score,Call
IFT57,-0.34,inactive
IFT57,0.16,inactive
IFT57,1.56,inactive
IFT57,0.06,inactive
ZDHHC14,0.21,inactive
ZDHHC14,-0.26,inactive
ZDHHC14,0.33,inactive
ZDHHC14,0.36,inactive
TMEM86B,1.91,inactive
TMEM86B,3.08,active
TMEM86B,2.97,active
TMEM86B,0.04,inactive
PBX2,-0.71,inactive
PBX2,-0.48,inactive
PBX2,-0.94,inactive
PBX2,-0.83,inactive
ANKS1B,-0.92,inactive
ANKS1B,-0.25,inactive
ANKS1B,0,inactive
ANKS1B,0.14,inactive
CRCP,0.2,inactive
CRCP,0.71,inactive
CRCP,0.03,inactive
SLC66A1,3.96,active
SLC66A1,0.13,inactive
SLC66A1,0.2,inactive
SLC66A1,0.22,inactive
MPP3,1.32,inactive
MPP3,0.89,inactive
MPP3,1.3,inactive
MPP3,3.03,active
ZNF468,0.1,inactive
ZNF468,0.52,inactive
ZNF468,-0.51,inactive
ZNF468,0.24,inactive
SLC6A18,-0.63,inactive
SLC6A18,-0.25,inactive
SLC6A18,-1.09,inactive
SLC6A18,-0.27,inactive
MEOX2,-0.11,inactive
MEOX2,0.49,inactive
MEOX2,0.43,inactive
MEOX2,0.76,inactive
POLR2H,-1.65,active
POLR2H,-0.42,inactive
POLR2H,0.02,inactive
POLR2H,0.18,inactive
RXYLT1,-0.02,inactive
RXYLT1,1.15,inactive
RXYLT1,0.49,inactive
RXYLT1,0.84,inactive
ITGA6,3.37,active
ITGA6,2.66,inactive
ITGA6,0,inactive
ITGA6,1.93,inactive
EID3,-0.25,inactive
EID3,0.8,inactive
EID3,0.42,inactive
EID3,1,inactive
LRRC49,1.35,inactive
LRRC49,-0.2,inactive
LRRC49,0.32,inactive
LRRC49,0.84,inactive
SHMT1,-0.44,inactive
SHMT1,-0.56,inactive
SHMT1,-0.78,inactive
SHMT1,0.48,inactive
PBOV1,-0.46,inactive
PBOV1,0.54,inactive
PBOV1,1.8,inactive
PBOV1,-0.4,inactive
MRPL46,-0.02,inactive
MRPL46,-0.07,inactive
MRPL46,0.5,inactive
MRPL46,-1.65,active
PHIP,0.35,inactive
PHIP,0.97,inactive
PHIP,0.47,inactive
PHIP,1.01,inactive
OR5K4,0.47,inactive
OR5K4,0.81,inactive
OR5K4,0.23,inactive
OR5K4,-0.85,inactive
LCORL,1.13,inactive
LCORL,0.1,inactive
LCORL,1.31,inactive
LCORL,-0.02,inactive
INF2,-1.19,inactive
INF2,-1.45,inactive
INF2,-1.32,inactive
INF2,-1.23,inactive
CALCOCO1,-1.5,inactive
CALCOCO1,-0.9,inactive
CALCOCO1,-0.8,inactive
CALCOCO1,-0.7,inactive
ARMH3,-0.54,inactive
ARMH3,0.7,inactive
ARMH3,1.3,inactive
ARMH3,1.04,inactive
IL13RA1,1,inactive
IL13RA1,2.4,inactive
IL13RA1,-0.1,inactive
IL13RA1,0.19,inactive
MRPS15,1.8,inactive
MRPS15,0.95,inactive
MRPS15,3.08,active
MRPS15,1.21,inactive
FAM3C,0.5,inactive
FAM3C,1.21,inactive
FAM3C,0.53,inactive
FAM3C,0.81,inactive

Entries listed so far marked active (8):
gene,TNF reporter robust z-score,Call
TMEM86B,3.08,active
TMEM86B,2.97,active
SLC66A1,3.96,active
MPP3,3.03,active
POLR2H,-1.65,active
ITGA6,3.37,active
MRPL46,-1.65,active
MRPS15,3.08,active
